No constants are given. Whether binding was seen depends on the method and setting. Some entries that bind do so weakly or less than the wild type.
What was measured:
[1] = target: Homo sapiens MUC16 (GenBank NP-078966) (human); assay: saturation binding of 131I-labelled antibody on intact OVCAR-3 cells
[2] = target: Homo sapiens MUC16 (GenBank NP-078966) (human); assay: FACS on OVCAR3 wild type cells
[3] = target: Homo sapiens MUC16 (GenBank NP-078966) (human); assay: FACS on OVCAR3 cells, subclone
[4] = target: Homo sapiens MUC16 (GenBank NP-078966) (human); assay: FACS on OVCAR3 cells, hybridoma sup 1:1

Measured: binding

B1: 4A5.37 (antibody, IgG1, V domains shown)
VH: VKLEESGGGFVKPGGSLKISCAASGFTFRNYAMSWVRLSPEMRLEWVATISSAGGYIFYSDSVQGRFTISRDNAKNTLHLQMGSLRSGDTAMYYCARQGFGNYGDYYAMDYWGQGTTVTVSS
VL: DIELTQSPSSLAVSAGEKVTMSCKSSQSLLNSRTRKNQLAWYQQKTGQSPELLIYWASTRQSGVPDRFTGSGSGTDFTLTISSVQAEDLAVYYCQQSYNLLTFGPGTKLEIKR
binds: [1] | [2] | [3] | [4]
